Experimental data from patent publication US10827969B2, “Breath test device and method” (EXALENZ BIOSCIENCE LTD., priority 2005, dated 2020).
At least one read-out could not be matched to a standard name with certainty.

Experiment: Solubilizing methacetin with cyclodextrins
Format: physicochemical
Settings: compared with hydroxypropyl beta cyclodextrin

SMILES: OC[C@H]1O[C@@H]2O[C@H]3[C@H](O)[C@@H](O)[C@@H](O[C@H]4[C@H](O)[C@@H](O)[C@@H](O[C@H]5[C@H](O)[C@@H](O)[C@@H](O[C@H]6[C@H](O)[C@@H](O)[C@@H](O[C@H]7[C@H](O)[C@@H](O)[C@@H](O[C@H]1[C@H](O)[C@H]2O)O[C@@H]7CO)O[C@@H]6CO)O[C@@H]5CO)O[C@@H]4CO)O[C@@H]3CO [alpha cyclodextrin]
- effectiveness in solubilizing methacetin: less effective
